According to PubChem BioAssay AID504444 (National Center for Advancing Translational Sciences (NCATS), 2011):
The campaign covered roughly 360,000 compounds. About 7,500 (2.1%) were called active. Inconclusive results, whose numbers are uncertain, are shown with a selection of clear calls. The call rests on the fitted dose curve; in most records, active means well fitted inhibition curve with a large enough effect; inconclusive means small, poorly fitted or top-dose-only effect, or effect the other way; inactive means flat fitted curve, though single readings scatter. Potencies of inconclusive entries are doubtful fits and often do not repeat.

Assay: Nrf2 qHTS screen for inhibitors; further: nearly all actives have a fitted effect of over 60% in size
Conditions: A549 ARE-Fluc reporter, luciferase luminescence, 18-24 h; activity change, negative = inhibition: at 46 µM (top of the series)
Method in brief: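 In this cell-based qHTS, ARE-driven firefly luciferase in A549 cells reports Nrf2 activity; the luminescent signal after BugLite lysis is the measured value, with a prior CellTiter-Fluor read for cell health.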
On the % scale 0 is the no-effect control and ±100 the full control effect; potency means the concentration at half of the fitted maximal effect.

Structure (SMILES) | Potency | activity change, negative = inhibition
COc1ccc(-c2noc(N3CCC(C(=O)Nc4ccc(OC)cc4OC)CC3)n2)cc1 | inconclusive: 0.0092 µM [falling, full curve, poor fit] | 
Oc1c(Cl)cc(Cl)cc1/C=N/c1nc(-c2ccc(Cl)cc2)cs1 | inconclusive: 8.2 µM [activator, partial curve, poor fit] | 
COc1cccc(N2CCN(CC(=O)Nc3nnc(-c4ccccc4)s3)CC2)c1 | active: 11.6 µM | 
Cc1ncoc1C(=O)N1CCCC(C(=O)c2cccc(OC(C)C)c2)C1 (centres undefined) |  | inactive: 8.84%
CCCCC1(Cc2ccc([N+](=O)[O-])cc2)C(=O)N(c2ccccc2)N(c2ccccc2)C1=O | inconclusive: 13 µM [falling, partial curve, poor fit] | 
COc1ccc2c(c1)c(CC(=O)Nc1cc(C)c(OC)c(C)c1)c(C)n2C(=O)c1ccc(Cl)cc1 |  | inactive: -9.75%
CCN(c1ccccc1)S(=O)(=O)c1ccc(C(=O)Nc2cc(C)ccn2)cc1 | inconclusive: 18.4 µM [falling, partial curve] | 
COc1ccc(NC(=O)c2ccc(Br)o2)cc1 | inconclusive: 4.11 µM [activator, partial curve] | 
CCc1ccc(S(=O)(=O)Nc2cccc(C3OCCCO3)c2)cc1 | active: 10.3 µM | 
C/C(=N/NS(=O)(=O)c1cc(C)ccc1C)c1c[nH]c2ccccc12 | inconclusive: 16.4 µM [falling, single point] | 
Cc1cccc(Oc2ccccc2NS(=O)(=O)c2ccc(CCC(=O)O)cc2)c1 | inconclusive: 20.6 µM [falling, partial curve] | 
COc1ccccc1Nc1ncnc2c1nc1n2CCCCC1 | inconclusive: 14.6 µM [activator, partial curve] | 
N/C(=N\OC(=O)c1ccccc1Br)c1ccc([N+](=O)[O-])cc1 | inconclusive: 4.11 µM [activator, partial curve] | 
Cc1occc1C(=O)Nc1ccc2ccccc2c1 | inconclusive: 4.11 µM [activator, full curve] | 
O=C(O)C1CC=CCC1C(=O)Nc1cccc([N+](=O)[O-])c1 (centres undefined) | inconclusive: 6.51 µM [activator, single point] | 
O=C1c2ccccc2C(Nc2ccc(-c3nc4ccccc4[nH]3)cc2)N1Cc1ccco1 (centres undefined) | inconclusive: 25.9 µM [falling, single point] | 
Cc1ccc(C(=O)N2C(=O)C(c3ccccc3)Oc3ccccc32)cc1 (centres undefined) | inconclusive: 20.6 µM [falling, single point] | 
Cc1cc2[nH]c3ccccc3c2c(C)n1 | inconclusive: 18.4 µM [falling, partial curve, poor fit] | 
CCOC(=O)c1c(NC(=O)CSc2nc3cc(Cl)ccc3c(=O)n2Cc2ccco2)sc(C(=O)N(C)C)c1C | inconclusive: 2.59 µM [falling, partial curve, poor fit] | 
Cc1c(N/N=C(\C#N)C(=O)c2ccc(Cl)cc2)c(=O)n(-c2ccccc2)n1C | inconclusive: 9.2 µM [falling, partial curve] | 
CCc1nnc(NC(=O)CSc2ncc(-c3ccccc3)n2CC)s1 | inconclusive: 8.2 µM [falling, partial curve, poor fit] | 
Cc1nc(C)c(-c2csc(Nc3ccc(N)cc3)n2)s1 | active: 20.6 µM | 

Structure (SMILES) | Potency | activity change, negative = inhibition
Cc1nn(-c2cc(N3CCCCCC3)ccc2[N+](=O)[O-])c(=O)c2ccccc12 | inconclusive: 32.6 µM [falling, single point] | 
O=C(c1ccc(S(=O)(=O)Nc2ccc(F)cc2)cc1)N1CCN(C(=O)c2ccco2)CC1 | inconclusive: 6.51 µM [falling, partial curve] | 
COc1ccc(S(=O)(=O)Nc2cccc(N(C)S(C)(=O)=O)c2)cc1C | inconclusive: 32.6 µM [falling, single point] | 
O=C(NCc1ccc(F)cc1)n1cc(P(=S)(c2ccccc2)c2ccccc2)c2ccccc21 |  | inactive: -4.96%
COc1ccccc1NC(=O)Nc1ccc(F)c(F)c1 | inconclusive: 5.17 µM [activator, partial curve, poor fit] | 
O=C(Cc1ccc(S(=O)(=O)N2CCOCC2)s1)N1CCN(c2ccc(C(F)(F)F)cc2[N+](=O)[O-])CC1 | inconclusive: 23.1 µM [falling, partial curve, poor fit] | 
Cc1ccc2cc(S(=O)(=O)NCCC(=O)O)ccc2c1 | inconclusive: 8.2 µM [falling, partial curve] | 
COc1ccc(N(C(=O)c2cc(OC)c(OC)c(OC)c2)S(=O)(=O)c2ccc(C)cc2)cc1 | inconclusive: 25.9 µM [falling, partial curve, poor fit] | 
O=S(=O)(Nc1ccc(S(=O)(=O)Nc2nccs2)cc1)c1ccc(Br)cc1 |  | inactive: -10.6%
Cc1cccc(Cn2c(SCc3ccc(C(=O)NCc4cccs4)cc3)nc3ccncc32)c1 | inconclusive: 13 µM [falling, partial curve, poor fit] | 
Cc1c(NC(=O)c2nn3c(C(F)(F)F)cc(-c4ccccc4)nc3c2Br)c(=O)n(-c2ccccc2)n1C | inconclusive: 18.4 µM [falling, single point] | 
CC(C)C[C@H](NC(=O)C1(c2ccccc2)CCN(C(=O)OC(C)(C)C)CC1)C(=O)N1CCC[C@H]1C(=O)O | inconclusive: 16.4 µM [falling, single point] | 
Cn1c(NC(=O)/C=C/c2ccccc2)cc(=O)n(C)c1=O | inconclusive: 8.2 µM [activator, partial curve] | 
CC(=O)n1c2ccccc2c2ccccc21 |  | inactive: 6.87%
CCOc1ccccc1NC(=O)N1CCCN(c2ncccc2C#N)CC1 |  | inactive: 3.74%
O=C(N/N=C/c1c(F)cccc1Cl)c1cc(C2CC2)[nH]n1 | inconclusive: 5.8 µM [activator, full curve] | 
O=C(CSc1ccc(S(=O)(=O)N2CCOCC2)cn1)Nc1ccc(F)c(F)c1 | inconclusive: 18.4 µM [falling, single point] | 
CCOc1nc(NC(=O)NS(=O)(=O)c2ccccc2F)nc(-c2ccccc2)n1 | inconclusive: 25.9 µM [activator, single point] | 
CCOC(=O)C1CCCN(S(=O)(=O)c2cc(C(=O)OC)n(C)c2)C1 (centres undefined) | inconclusive: 4.61 µM [falling, partial curve, poor fit] | 
COc1ccc(CN(C)C(=O)Cc2ccc(OC)c(S(=O)(=O)N3CCOCC3)c2)cc1 | inconclusive: 29.1 µM [falling, single point] | 
Cc1nc2ccc(NC(=O)c3ccc(Cl)c(S(=O)(=O)N(C)c4ccccc4)c3)cc2s1 | active: 3.26 µM | 
CCCCNC(=O)C(C)N(CCN(C)C)C(=O)CCCCCN1C(=O)NC(c2ccc(Cl)cc2)C(C(=O)OCc2ccccc2)=C1C (centres undefined) | inconclusive: 32.6 µM [falling, single point] | 

Structure (SMILES) | Potency | activity change, negative = inhibition
O=C(c1cccc(S(=O)(=O)N2CCOCC2)c1)N1CCC(Cc2ccccc2)CC1 | inconclusive: 25.9 µM [falling, single point] | 
CCN1C/C(=C/c2cccc([N+](=O)[O-])c2)C(=O)/C(=C/c2cccc([N+](=O)[O-])c2)C1 |  | inactive: 10.4%
Cc1ccc(NC(=O)C(C)c2ccc(-c3ccccc3)c(F)c2)cc1 (centres undefined) | active: 14.6 µM | 
Cc1ccc(C(=O)c2cc(C)sc2NC(=O)CN2CCN(C(=O)c3ccco3)CC2)cc1 | inconclusive: 29.1 µM [falling, single point] | 
N#Cc1c(SCC(N)=O)nc(-c2ccccc2)c2c1CCCC2 | inconclusive: 29.1 µM [falling, single point] | 
Cc1ccc(-n2c(=O)c3cccnc3n2CC(=O)Nc2ccccc2C(F)(F)F)cc1C |  | inactive: 31.5%
Cc1ccc(C)c(NC(=O)C(NS(=O)(=O)c2ccc3c(c2)CCC(=O)N3)c2ccccc2)c1 (centres undefined) | inconclusive: 6.51 µM [activator, single point] | 
COc1ccc(C(=O)N2N=C(c3cccs3)CC2c2ccccc2O)cc1 (centres undefined) | active: 18.4 µM | 
COc1ccccc1OC(C)C(=O)N1CCN(CCc2ccccn2)CC1 (centres undefined) |  | inactive: 20.1%
Cc1ccnc(NC(c2cc(C)ccc2O)c2ccc3cccnc3c2O)c1 (centres undefined) | inconclusive: 29.1 µM [falling, single point] | 
COc1ccc(-c2cn3c(n2)sc2cc(C(=O)NC4CCCCC4)ccc23)cc1 |  | inactive: 16.4%
COc1ccc(S(=O)(=O)N(C(=O)c2ccncc2)c2ccc3oc(C)c(C(C)=O)c3c2)cc1 | active: 5.8 µM | 
COc1ccccc1N1CCN(Cc2cc(COC(C)C)c3cccnc3c2O)CC1 | inconclusive: 25.9 µM [falling, single point] | 
O=C(CSCc1ccccc1Br)N/N=C/c1ccc2c(c1)OCO2 | inconclusive: 29.1 µM [falling, partial curve, poor fit] | 
O=C(Nc1cccc(Cl)c1)c1ccc2c(c1)OCCO2 |  | inactive: 106%
CCC(C)n1c(=N)c(C(=O)NC2CCCCC2)cc2c(=O)n3cc(C)ccc3nc21 (centres undefined) |  | inactive: 10.6%
O=C(O)c1cc(O)c2c(c1)[C@@H]([C@H]1c3cc(C(=O)O)cc(O)c3C(=O)c3c(O[C@@H]4O[C@H](CO)[C@@H](O)[C@H](O)[C@H]4O)cccc31)c1cccc(OC3O[C@H](CO)[C@@H](O)[C@H](O)[C@H]3O)c1C2=O (some centres undefined) |  | inactive: -17.9%
CCCc1cc(=O)oc2c3c(cc(OCC(=O)N[C@@H](C)C(=O)O)c12)OC(C)(C)CC3 |  | inactive: 9.14%
O=S(=O)(c1ccc(OCC(O)CN2CCc3ccccc3C2)cc1)N1CCOCC1 (centres undefined) | inconclusive: 32.6 µM [falling, single point] | 
CCCCNC(=S)N(C)/N=C/c1ccc2c(c1)OCO2 | inconclusive: 9.2 µM [falling, partial curve] | 

Reformatted tab-delimited: entries from further up.
Structure (SMILES)	Potency	activity change, negative = inhibition
O=C(c1cccc(S(=O)(=O)N2CCOCC2)c1)N1CCC(Cc2ccccc2)CC1	inconclusive: 25.9 µM [falling, single point]	
CCN1C/C(=C/c2cccc([N+](=O)[O-])c2)C(=O)/C(=C/c2cccc([N+](=O)[O-])c2)C1		inactive: 10.4%
Cc1ccc(NC(=O)C(C)c2ccc(-c3ccccc3)c(F)c2)cc1 (centres undefined)	active: 14.6 µM	
Cc1ccc(C(=O)c2cc(C)sc2NC(=O)CN2CCN(C(=O)c3ccco3)CC2)cc1	inconclusive: 29.1 µM [falling, single point]	
N#Cc1c(SCC(N)=O)nc(-c2ccccc2)c2c1CCCC2	inconclusive: 29.1 µM [falling, single point]	
Cc1ccc(-n2c(=O)c3cccnc3n2CC(=O)Nc2ccccc2C(F)(F)F)cc1C		inactive: 31.5%
COc1ccc(C(=O)N2N=C(c3cccs3)CC2c2ccccc2O)cc1 (centres undefined)	active: 18.4 µM	
COc1ccccc1OC(C)C(=O)N1CCN(CCc2ccccn2)CC1 (centres undefined)		inactive: 20.1%
Cc1ccnc(NC(c2cc(C)ccc2O)c2ccc3cccnc3c2O)c1 (centres undefined)	inconclusive: 29.1 µM [falling, single point]	
COc1ccc(S(=O)(=O)N(C(=O)c2ccncc2)c2ccc3oc(C)c(C(C)=O)c3c2)cc1	active: 5.8 µM	
COc1ccccc1N1CCN(Cc2cc(COC(C)C)c3cccnc3c2O)CC1	inconclusive: 25.9 µM [falling, single point]	
O=C(CSCc1ccccc1Br)N/N=C/c1ccc2c(c1)OCO2	inconclusive: 29.1 µM [falling, partial curve, poor fit]	
O=C(Nc1cccc(Cl)c1)c1ccc2c(c1)OCCO2		inactive: 106%
CCC(C)n1c(=N)c(C(=O)NC2CCCCC2)cc2c(=O)n3cc(C)ccc3nc21 (centres undefined)		inactive: 10.6%
O=C(O)c1cc(O)c2c(c1)[C@@H]([C@H]1c3cc(C(=O)O)cc(O)c3C(=O)c3c(O[C@@H]4O[C@H](CO)[C@@H](O)[C@H](O)[C@H]4O)cccc31)c1cccc(OC3O[C@H](CO)[C@@H](O)[C@H](O)[C@H]3O)c1C2=O (some centres undefined)		inactive: -17.9%
O=S(=O)(c1ccc(OCC(O)CN2CCc3ccccc3C2)cc1)N1CCOCC1 (centres undefined)	inconclusive: 32.6 µM [falling, single point]	
CCCCNC(=S)N(C)/N=C/c1ccc2c(c1)OCO2	inconclusive: 9.2 µM [falling, partial curve]	
